# Assay results as given in PubChem BioAssay AID651640 (Broad Institute, 2012).
# In all, about 350,000 compounds went through this assay and about 6,000 (1.7%) were called active. The inconclusive results got no clear call from the source; some entries with a clear call stand among them for comparison. No stated cut-off is given here; in the data, active means CPE inhibition above about 20% (passing the limit was not always enough); inconclusive means no clear call, values can overlap the other calls; tested in BHK-21 cells. A structure can be active in one record and inactive in another.
# Assay: protection of cells from dengue 2 killing – plate reader, single concentration, primary screen (AID 651640);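 further: 0% = median of neutral control wells and 100% = median of positive control wells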
# Conditions: DENV2-infected cells, cytopathic effect rescue, at 9.99 µM, stronger effect = higher value
row,Structure (SMILES),CPE inhibition
1,O=C(C[C@H]1C[C@H]2c3cc(NC(=O)Cc4ccncc4)ccc3O[C@H]2[C@H](CO)O1)NCc1cccc(F)c1,inconclusive: 20.6%
2,CC1CN(C(=O)CNC(=O)COc2ccccc2)CC(C)O1 (centres undefined),inconclusive: 51.3%
3,CC(=O)Nc1ccc(S(=O)(=O)CC(=O)CS(=O)(=O)c2ccc(NC(C)=O)cc2)cc1,inconclusive: 20.4%
4,Cc1noc(C)c1NC(=O)Nc1ccc2c(c1)C(=O)N([C@H](C)CO)C[C@H](C)[C@H](CN(C)C(=O)Nc1ccc(F)cc1)OCCCC[C@@H](C)O2,inactive: 9.62%
5,COc1cccc(/C=N/n2c(C3CCCCC3)n[nH]c2=S)c1OC,inconclusive: 23.6%
6,COc1cccc(NC(=O)N2[C@@H]3CNC[C@H]2C3c2ccc(/C=C/c3ccccc3)cc2)c1 (some centres undefined),active: 89%
7,COc1ccc(S(=O)(=O)N[C@H]2CC[C@H](CC(=O)O)O[C@@H]2CO)cc1,inactive: -1.98%
8,Cc1nn(C)cc1NC(=O)C[C@H]1CC[C@H]2[C@@H](COc3ccc(NC(=O)NC(C)C)cc3C(=O)N2C)O1,inconclusive: 21.4%
9,O=S1(=O)N[C@H](Cc2ccccc2)COc2cccc(N3CCN(Cc4ccccc4F)CC3)c21,inconclusive: 26.5%
10,Cc1ccc(CCC(=O)Nc2ccc(N(C)C)cc2)o1,inactive: 0.396%
11,C[C@H](NC(=O)c1ccccc1F)C(=O)N1CCC2(CC1)NCCc1[nH]cnc12,inconclusive: 42.6%
12,C[C@@H]1CN([C@H](C)CO)C(=O)c2cc(NC(=O)NC3CCCCC3)ccc2O[C@@H]1CN(C)C(=O)Nc1ccc(F)cc1,active: 40.1%
13,CN(Cc1ccc(F)cc1)Cc1nc(CCc2ccccc2)no1,inactive: 4.66%
14,C[C@H]1CN([C@@H](C)CO)S(=O)(=O)c2ccc(-c3cccnc3)cc2O[C@@H]1CN(C)C(=O)CC1CC1,inactive: -6.26%
15,CCOC(=O)Cc1csc(NC(=O)Nc2cccc(OC)c2)n1,inactive: 6.81%
16,O=C(C[C@H]1C[C@H]2c3cc(NC(=O)Nc4ccccc4)ccc3O[C@H]2[C@H](CO)O1)NCc1ccncc1,active: 62.2%
17,COc1ccc2nc(SCC(=O)NCc3ccc(F)cc3)[nH]c2c1,inactive: 2.23%
18,CC(=O)NCCc1nc2cc(NC(=O)c3ccc(Cl)cc3)ccc2n1C,inconclusive: 28.1%
19,Cc1occc1-c1nnc(SCCNCCO)o1,inconclusive: 30.5%
20,COc1cc2ccccc2cc1C(=O)N1CCN(C(C)=O)CC1,inactive: 2.31%
21,COc1ccc(NC(=O)Nc2ccc3c(c2)CC(=O)N([C@@H](C)CO)C[C@@H](C)[C@H](CN(C)S(C)(=O)=O)O3)cc1,active: 30.4%
22,Cc1sc(NC(=O)c2ccc(F)cc2)c(CN2CCCCCC2)c1C,inconclusive: 36.5%
23,Cc1ccc(S(=O)(=O)N2CCN(C(=O)Cc3ccsc3)CC2)c(C)c1,inconclusive: 22.1%
24,CCCc1nc2ccc(C)cn2c1Cc1ccccc1C(F)(F)F,inconclusive: 35.5%
25,NC(=O)c1nsc(C(=O)N(c2cccc(F)c2)C(C(=O)NCC2CCCO2)c2ccc3ncccc3c2)c1N (centres undefined),inconclusive: 25.8%

# For reference, part of the list above:
row,Structure (SMILES),CPE inhibition
4,Cc1noc(C)c1NC(=O)Nc1ccc2c(c1)C(=O)N([C@H](C)CO)C[C@H](C)[C@H](CN(C)C(=O)Nc1ccc(F)cc1)OCCCC[C@@H](C)O2,inactive: 9.62%
5,COc1cccc(/C=N/n2c(C3CCCCC3)n[nH]c2=S)c1OC,inconclusive: 23.6%
6,COc1cccc(NC(=O)N2[C@@H]3CNC[C@H]2C3c2ccc(/C=C/c3ccccc3)cc2)c1 (some centres undefined),active: 89%
7,COc1ccc(S(=O)(=O)N[C@H]2CC[C@H](CC(=O)O)O[C@@H]2CO)cc1,inactive: -1.98%
8,Cc1nn(C)cc1NC(=O)C[C@H]1CC[C@H]2[C@@H](COc3ccc(NC(=O)NC(C)C)cc3C(=O)N2C)O1,inconclusive: 21.4%
9,O=S1(=O)N[C@H](Cc2ccccc2)COc2cccc(N3CCN(Cc4ccccc4F)CC3)c21,inconclusive: 26.5%
10,Cc1ccc(CCC(=O)Nc2ccc(N(C)C)cc2)o1,inactive: 0.396%
11,C[C@H](NC(=O)c1ccccc1F)C(=O)N1CCC2(CC1)NCCc1[nH]cnc12,inconclusive: 42.6%
12,C[C@@H]1CN([C@H](C)CO)C(=O)c2cc(NC(=O)NC3CCCCC3)ccc2O[C@@H]1CN(C)C(=O)Nc1ccc(F)cc1,active: 40.1%
13,CN(Cc1ccc(F)cc1)Cc1nc(CCc2ccccc2)no1,inactive: 4.66%
14,C[C@H]1CN([C@@H](C)CO)S(=O)(=O)c2ccc(-c3cccnc3)cc2O[C@@H]1CN(C)C(=O)CC1CC1,inactive: -6.26%
15,CCOC(=O)Cc1csc(NC(=O)Nc2cccc(OC)c2)n1,inactive: 6.81%
16,O=C(C[C@H]1C[C@H]2c3cc(NC(=O)Nc4ccccc4)ccc3O[C@H]2[C@H](CO)O1)NCc1ccncc1,active: 62.2%

# Carrying on:

row,Structure (SMILES),CPE inhibition
1,Cc1ccc(C(=O)N/N=C\c2ccccn2)cn1,inactive: 12.1%
2,O=C(Nc1ccc2c(c1)OCO2)c1cc(C2CCCCN2C(=O)c2ccc(Cl)cc2)on1 (centres undefined),inconclusive: 33.7%
3,C[C@H]1CN([C@@H](C)CO)C(=O)Cc2cc(NC(=O)Nc3ccccc3)ccc2O[C@H]1CN(C)S(=O)(=O)c1cn(C)cn1,inconclusive: 66.6%
4,Cc1ccsc1C(=O)N(C)C1CCS(=O)(=O)C1 (centres undefined),inconclusive: 35.6%
5,COc1ccc(-c2csc(C(C)(O)c3cccc(F)c3)n2)cn1 (centres undefined),inconclusive: 67%
6,COc1ccc2c3c(n(C)c2c1)[C@@H](CO)N(C)CC31CN(C(=O)CN2CCOCC2)C1,inconclusive: 20.6%
7,C[C@@H]1CN([C@@H](C)CO)C(=O)Cc2cc(NC(=O)Nc3ccc(F)cc3)ccc2O[C@H]1CN(C)Cc1ccc(C(F)(F)F)cc1,inconclusive: 31.2%
8,CCSc1nc2ccccc2c(=O)n1CCc1ccc(OC)c(OC)c1,inactive: 3.39%
9,COc1ccccc1CNC(=O)COC(=O)C1CC1,inconclusive: 50.7%
10,CCCNC(=O)C[C@@H]1CC[C@@H]2[C@H](COc3ccc(NC(=O)c4cccc(OC)c4)cc3C(=O)N2C)O1,inconclusive: 62.8%
11,COc1cccc(S(=O)(=O)N2C[C@H](O)COC[C@@H]3O[C@H](CC(=O)N4CCN(C)CC4)CC[C@H]32)c1,inactive: -1.42%
12,Cc1cccc(CNc2ccc(C(CC(N)=O)NC(=O)c3ccccc3)cc2[N+](=O)[O-])c1 (centres undefined),inconclusive: 25.9%
13,O=C(COC(=O)c1ccc(Cl)cc1[N+](=O)[O-])NC(=O)c1ccccc1,inconclusive: 21.5%
14,CC(C)(C)c1ccc(C(=O)NCCN2CCOCC2)cc1,inactive: 9.32%
15,CCc1cc(C(=O)OC)c(NC(=O)CSc2nccn2C)s1,inconclusive: 22.3%
16,CCCNC(=O)C[C@H]1C[C@H]2c3cc(N(C)C)ccc3O[C@H]2[C@@H](CO)O1,inactive: -6.86%
17,COCCNc1ncnc2c1ncn2[C@H]1CN(Cc2cc(OC)c(OC)c(OC)c2)C[C@@H](CO)O1,inactive: -1.25%
18,CCCn1c(SCC(=O)c2cc(C)n(C3CC3)c2C)n[nH]c1=O,inconclusive: 26.5%
19,CC(=O)O[C@H]1CC[C@@]2(C)[C@@H](CC[C@H]3[C@@H]4CC[C@H](C(C)O)[C@@]4(C)CC(=O)[C@@H]32)C1 (some centres undefined),active: 37.3%
20,CC(NC(=O)C1=CC=CN2CCS(=O)(=O)N=C12)c1ccc(Cl)c(Cl)c1 (centres undefined),inconclusive: 41%
21,CCOC(=O)N1CCN(CC(O)c2c[nH]c3ccccc23)CC1 (centres undefined),inconclusive: 21%
22,COC(=O)c1cc(CSc2ncnc3sccc23)oc1C,inconclusive: 28.4%
23,C[C@H](CO)N1C[C@H](C)[C@H](CN(C)S(=O)(=O)c2ccccc2)OCCCC[C@H](C)Oc2ccc(NC(=O)Nc3ccc(F)cc3)cc2C1=O,active: 21.7%
24,COc1ccc(C#Cc2ccc([C@H]3[C@H](CO)N4C(=O)CN(C(=O)c5cccnc5)C[C@@H]34)cc2)cc1,inactive: 3.19%
